In the assay the test system is Ratten. As to conditions: in vivo, sc.

With `CN1C2CC(OC(=O)C(CO)c3ccccc3)CC1C1OC12` (stereo not shown) [Scopolamin], the “Häufigkeit des Findens der Plattform” value is given as “deutlich seltener”.

These data come from EP2533787B1, “USE OF ISORHAMNETIN TRIGLYCOSIDES” (Dr. Willmar Schwabe GmbH & Co. KG, priority 2010, dated 2011).
